Reference: publication doi:10.1101/609503

T1: NlpI (soluble version, residues 19-294) (E. coli) (UniProt P0AFB1)
T1 sequence (chain, NT647 RED-NHS dye on amines where used as the labelled partner (fl-NlpI)): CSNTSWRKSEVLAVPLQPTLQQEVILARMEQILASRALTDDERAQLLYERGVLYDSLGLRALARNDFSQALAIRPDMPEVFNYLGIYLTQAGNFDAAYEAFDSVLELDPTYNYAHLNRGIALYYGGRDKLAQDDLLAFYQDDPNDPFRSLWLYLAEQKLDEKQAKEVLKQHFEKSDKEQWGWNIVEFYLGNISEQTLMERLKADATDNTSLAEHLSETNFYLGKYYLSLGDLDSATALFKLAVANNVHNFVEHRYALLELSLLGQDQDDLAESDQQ


Experiments:
[1] = molecular target: T1, NlpI (soluble version, residues 19-294) (E. coli); test: affinity purification with mass spectrometry
[2] = molecular target: T1, NlpI (soluble version, residues 19-294) (E. coli); test: affinity purification with mass spectrometry; remark: listed apart in the source

Binder | binding [1] | binding [2]
EnvC (endogenous, membrane extract) (protein, UniProt P37690 35-419) DERDQLKSIQADIAAKERAVRQKQQQRASLLAQLKKQEEAISEATRKLRETQNTLNQLNKQIDEMNASIAKLEQQKAAQERSLAAQLDAAFRQGEHTGIQLILSGEESQRGQRLQAYFGYLNQARQETIAQLKQTREEVAMQRAELEEKQSEQQTLLYEQRAQQAKLTQALNERKKTLAGLESSIQQGQQQLSELRANESRLRNSIARAEAAAKARAEREAREAQAVRDRQKEATRKGTTYKPTESEKSLMSRTGGLGAPRGQAFWPVRGPTLHRYGEQLQGELRWKGMVIGASEGTEVKAIADGRVILADWLQGYGLVVVVEHGKGDMSLYGYNQSALVSVGSQVRAGQPIALVGSSGGQGRPSLYFEIRRQGQAVNPQPWLGR | binds | binds
FtsK (endogenous, membrane extract) (protein, UniProt P46889 1-1329) MSQEYIEDKEVTLTKLSSGRRLLEALLILIVLFAVWLMAALLSFNPSDPSWSQTAWHEPIHNLGGMPGAWLADTLFFIFGVMAYTIPVIIVGGCWFAWRHQSSDEYIDYFAVSLRIIGVLALILTSCGLAAINADDIWYFASGGVIGSLLSTTLQPLLHSSGGTIALLCVWAAGLTLFTGWSWVTIAEKLGGWILNILTFASNRTRRDDTWVDEDEYEDDEEYEDENHGKQHESRRARILRGALARRKRLAEKFINPMGRQTDAALFSGKRMDDDEEITYTARGVAADPDDVLFSGNRATQPEYDEYDPLLNGAPITEPVAVAAAATTATQSWAAPVEPVTQTPPVASVDVPPAQPTVAWQPVPGPQTGEPVIAPAPEGYPQQSQYAQPAVQYNEPLQQPVQPQQPYYAPAAEQPAQQPYYAPAPEQPVAGNAWQAEEQQSTFAPQSTYQTEQTYQQPAAQEPLYQQPQPVEQQPVVEPEPVVEETKPARPPLYYFEEVEEKRAREREQLAAWYQPIPEPVKEPEPIKSSLKAPSVAAVPPVEAAAAVSPLASGVKKATLATGAAATVAAPVFSLANSGGPRPQVKEGIGPQLPRPKRIRVPTRRELASYGIKLPSQRAAEEKAREAQRNQYDSGDQYNDDEIDAMQQDELARQFAQTQQQRYGEQYQHDVPVNAEDADAAAEAELARQFAQTQQQRYSGEQPAGANPFSLDDFEFSPMKALLDDGPHEPLFTPIVEPVQQPQQPVAPQQQYQQPQQPVPPQPQYQQPQQPVAPQPQYQQPQQPVAPQQQYQQPQQPVAPQQQYQQPQQPVAPQPQDTLLHPLLMRNGDSRPLHKPTTPLPSLDLLTPPPSEVEPVDTFALEQMARLVEARLADFRIKADVVNYSPGPVITRFELNLAPGVKAARISNLSRDLARSLSTVAVRVVEVIPGKPYVGLELPNKKRQTVYLREVLDNAKFRDNPSPLTVVLGKDIAGEPVVADLAKMPHLLVAGTTGSGKSVGVNAMILSMLYKAQPEDVRFIMIDPKMLELSVYEGIPHLLTEVVTDMKDAANALRWCVNEMERRYKLMSALGVRNLAGYNEKIAEADRMMRPIPDPYWKPGDSMDAQHPVLKKEPYIVVLVDEFADLMMTVGKKVEELIARLAQKARAAGIHLVLATQRPSVDVITGLIKANIPTRIAFTVSSKIDSRTILDQAGAESLLGMGDMLYSGPNSTLPVRVHGAFVRDQEVHAVVQDWKARGRPQYVDGITSDSESEGGAGGFDGAEELDPLFDQAVQFVTEKRKASISGVQRQFRIGYNRAARIIEQMEAQGIVSEQGHNGNREVLAPPPFD | binds | binds
AmiC (endogenous, membrane extract) (enzyme, UniProt P63883 32-417) AVSQVVAVRVWPASSYTRVTVESNRQLKYKQFALSNPERVVVDIEDVNLNSVLKGMAAQIRADDPFIKSARVGQFDPQTVRMVFELKQNVKPQLFALAPVAGFKERLVMDLYPANAQDMQDPLLALLEDYNKGDLEKQVPPAQSGPQPGKAGRDRPIVIMLDPGHGGEDSGAVGKYKTREKDVVLQIARRLRSLIEKEGNMKVYMTRNEDIFIPLQVRVAKAQKQRADLFVSIHADAFTSRQPSGSSVFALSTKGATSTAAKYLAQTQNASDLIGGVSKSGDRYVDHTMFDMVQSLTIADSLKFGKAVLNKLGKINKLHKNQVEQAGFAVLKAPDIPSILVETAFISNVEEERKLKTATFQQEVAESILAGIKAYFADGATLARRG | binds | –
MltC (endogenous, membrane extract) (enzyme, UniProt P0C066 17-359) CSTTKKGDTYNEAWVKDTNGFDILMGQFAHNIENIWGFKEVVIAGPKDYVKYTDQYQTRSHINFDDGTITIETIAGTEPAAHLRRAIIKTLLMGDDPSSVDLYSDVDDITISKEPFLYGQVVDNTGQPIRWEGRASNFADYLLKNRLKSRSNGLRIIYSVTINMVPNHLDKRAHKYLGMVRQASRKYGVDESLILAIMQTESSFNPYAVSRSDALGLMQVVQHTAGKDVFRSQGKSGTPSRSFLFDPASNIDTGTAYLAMLNNVYLGGIDNPTSRRYAVITAYNGGAGSVLRVFSNDKIQAANIINTMTPGDVYQTLTTRHPSAESRRYLYKVNTAQKSYRRR | binds | –
AmiA (endogenous, membrane extract) (enzyme, UniProt P36548 35-289) KDELLKTSNGHSKPKAKKSGGKRVVVLDPGHGGIDTGAIGRNGSKEKHVVLAIAKNVRSILRNHGIDARLTRSGDTFIPLYDRVEIAHKHGADLFMSIHADGFTNPKAAGASVFALSNRGASSAMAKYLSERENRADEVAGKKATDKDHLLQQVLFDLVQTDTIKNSLTLGSHILKKIKPVHKLHSRNTEQAAFVVLKSPSVPSVLVETSFITNPEEERLLGTAAFRQKIATAIAEGVISYFHWFDNQKAHSKKR | – | binds

Now from value to binder:

binding [1] | binding [2] | Binder
binds | – | PBP1C (endogenous, membrane extract) (enzyme, UniProt P76577 1-770) MPRLLTKRGCWITLAAAPFLLFLAAWGADKLWPLPLHEVNPARVVVAQDGTPLWRFADADGIWRYPVTIEDVSPRYLEALINYEDRWFWKHPGVNPFSVARAAWQDLTSGRVISGGSTLTMQVARLLDPHPKTFGGKIRQLWRALQLEWHLSKREILTLYLNRAPFGGTLQGIGAASWAYLGKSPANLSYSEAAMLAVLPQAPSRLRPDRWPERAEAARNKVLERMAVQGVWSREQVKESREEPIWLAPRQMPQLAPLFSRMMLGKSKSDKITTTLDAGLQRRLEELAQNWKGRLPPRSSLAMIVVDHTDMRVRGWVGSVDLNDDSRFGHVDMVNSIRSPGSVLKPFVYGLALDEGLIHPASLLQDVPRRTGDYRPGNFDSGFHGPISMSEALVRSLNLPAVQVLEAYGPKRFAAKLRNVGLPLYLPNGAAPNLSLILGGAGAKLEDMAAAYTAFARHGKAGKLRLQPDDPLLERPLMSSGAAWIIRRIMADEAQPLPDSALPRVAPLAWKTGTSYGYRDAWAIGVNARYVIGIWTGRPDGTPVVGQFGFASAVPLLNQVNNILLSRSANLPEDPRPNSVTRGVICWPGGQSLPEGDGNCRRRLATWLLDGSQPPTLLLPEQEGINGIRFPIWLDENGKRVAADCPQARQEMINVWPLPLEPWLPASERRAVRLPPASTSCPPYGHDAQLPLQLTGVRDGAIIKRLPGAAEATLPLQSSGGAGERWWFLNGEPLTERGRNVTLHLTDKGDYQLLVMDDVGQIATVKFVMQ
binds | binds | PBP3 (endogenous, membrane extract) (enzyme, UniProt P0AD68 1-577) MKAAAKTQKPKRQEEHANFISWRFALLCGCILLALAFLLGRVAWLQVISPDMLVKEGDMRSLRVQQVSTSRGMITDRSGRPLAVSVPVKAIWADPKEVHDAGGISVGDRWKALANALNIPLDQLSARINANPKGRFIYLARQVNPDMADYIKKLKLPGIHLREESRRYYPSGEVTAHLIGFTNVDSQGIEGVEKSFDKWLTGQPGERIVRKDRYGRVIEDISSTDSQAAHNLALSIDERLQALVYRELNNAVAFNKAESGSAVLVDVNTGEVLAMANSPSYNPNNLSGTPKEAMRNRTITDVFEPGSTVKPMVVMTALQRGVVRENSVLNTIPYRINGHEIKDVARYSELTLTGVLQKSSNVGVSKLALAMPSSALVDTYSRFGLGKATNLGLVGERSGLYPQKQRWSDIERATFSFGYGLMVTPLQLARVYATIGSYGIYRPLSITKVDPPVPGERVFPESIVRTVVHMMESVALPGGGGVKAAIKGYRIAIKTGTAKKVGPDGRYINKYIAYTAGVAPASQPRFALVVVINDPQAGKYYGGAVSAPVFGAIMGGVLRTMNIEPDALTTGDKNEFV
binds | – | PBP7 (endogenous, membrane extract) (enzyme, UniProt P0AFI5 26-310) KTAAATTASQPEIASGSAMIVDLNTNKVIYSNHPDLVRPIASISKLMTAMVVLDARLPLDEKLKVDISQTPEMKGVYSRVRLNSEISRKDMLLLALMSSENRAAASLAHHYPGGYKAFIKAMNAKAKSLGMNNTRFVEPTGLSVHNVSTARDLTKLLIASKQYPLIGQLSTTREDMATFSNPTYTLPFRNTNHLVYRDNWNIQLTKTGFTNAAGHCLVMRTVINNKPVALVVMDAFGKYTHFADASRLRTWIETGKVMPVPAAALSYKKQKAAQMAAAGQTAQND
binds | – | PBP1B (endogenous, membrane extract) (enzyme, UniProt P02919 1-844) MAGNDREPIGRKGKPTRPVKQKVSRRRYEDDDDYDDYDDYEDEEPMPRKGKGKGKGRKPRGKRGWLWLLLKLAIVFAVLIAIYGVYLDQKIRSRIDGKVWQLPAAVYGRMVNLEPDMTISKNEMVKLLEATQYRQVSKMTRPGEFTVQANSIEMIRRPFDFPDSKEGQVRARLTFDGDHLATIVNMENNRQFGFFRLDPRLITMISSPNGEQRLFVPRSGFPDLLVDTLLATEDRHFYEHDGISLYSIGRAVLANLTAGRTVQGASTLTQQLVKNLFLSSERSYWRKANEAYMALIMDARYSKDRILELYMNEVYLGQSGDNEIRGFPLASLYYFGRPVEELSLDQQALLVGMVKGASIYNPWRNPKLALERRNLVLRLLQQQQIIDQELYDMLSARPLGVQPRGGVISPQPAFMQLVRQELQAKLGDKVKDLSGVKIFTTFDSVAQDAAEKAAVEGIPALKKQRKLSDLETAIVVVDRFSGEVRAMVGGSEPQFAGYNRAMQARRSIGSLAKPATYLTALSQPKIYRLNTWIADAPIALRQPNGQVWSPQNDDRRYSESGRVMLVDALTRSMNVPTVNLGMALGLPAVTETWIKLGVPKDQLHPVPAMLLGALNLTPIEVAQAFQTIASGGNRAPLSALRSVIAEDGKVLYQSFPQAERAVPAQAAYLTLWTMQQVVQRGTGRQLGAKYPNLHLAGKTGTTNNNVDTWFAGIDGSTVTITWVGRDNNQPTKLYGASGAMSIYQRYLANQTPTPLNLVPPEDIADMGVDYDGNFVCSGGMRILPVWTSDPQSLCQQSEMQQQPSGNPFDQSSQPQQQPQQQPAQQEQKDSDGVAGWIKDMFGSN

Where two headings read alike, the source gives them in different places. These are yes or no findings as the source states them, for the method shown. Binding seen in cells or lysates may run through a third protein. These calls come from enrichment with a bait or labelling near it, and not all partners need be listed.
